# Primary screen of a compound library

Measurements from “University of Dundee, Small-Polar-MMV Screening Library” (2021), ChEMBL document CHEMBL3988442.

Results are given as percent effect. How 0% and 100% were set is not recorded. Most values in the screen are low, and negative values occur. This is an unselected part of the compounds tested.

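Whole-parasite assay of Trypanosoma brucei over 72 hours; the read-out is not stated. Compounds at 30 µM. Higher reads as stronger inhibition (inferred: compounds with an IC50 in retests scored well above the rest). Values scatter widely below zero; nearly all retest evidence comes from the higher of the two concentrations used. Size under these conditions: about 64,000 compounds, about 940 of them at 50% or above in at least one test.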

| structure | percent effect |
|---|---|
| `[H][C@@]12CCN(Cc3ccco3)C[C@@]1([H])[C@H](C(=O)N1CCCCO1)CCO2` | -2.465% |
| `Cc1nc(N)sc1C(=O)N1CCC(C(O)Cc2ccccc2)CC1` (stereo unspecified) | 13.96% |
| `COCC[C@]1(O)CCN(C(=O)C2CCN(C3CCCC3)CC2)C[C@H]1C` | -58.26% |
| `CCOc1nn(CC)cc1-c1nnc(SCc2cccnc2)n1C` | -6.129% |
| `CCOCCCC(=O)NC1CCN(C(C)c2ccccc2)CC1` (stereo unspecified) | -26.14% |
| `CCSCc1csc(-c2ccc(S(C)(=O)=O)cc2)n1` | 0.1327% |
| `[H][C@]12CN(Cc3ccccc3Br)C[C@]1([H])OCC(=O)N2` | -9.293% |
| `CCN(Cc1cccc2c1OCO2)C(=O)Nc1ccncc1` | -7.358% |
| `O=C(O)C(F)(F)F.O=C(O)C(F)(F)F.c1ccc(N2CCC3(COCCN(Cc4cccs4)C3)C2)nc1` (stereo unspecified) | -50.84% |
| `Cc1csc(N2CCN(Cc3cnc4c(c3)c(C)nn4C)CC2)n1` | -27.29% |
| `Cc1cc(CN(C)C(=O)c2ccc(OCC(F)(F)F)nc2)no1` | 13.35% |
| `CCCn1nc(C)c2c1NC(=O)CC2c1ccc(CN2CCCC2)s1` (stereo unspecified) | 6.961% |
| `CC(Cn1cccn1)NC(=O)c1cccs1` (stereo unspecified) | 3.258% |
| `CN(C)C(=O)CN1CCCC1c1cccc(Cc2ccccc2F)n1` (stereo unspecified) | 100.6% |
| `Cc1noc(C2CCC3(CCN(C(=O)c4cnccn4)CC3)O2)n1` (stereo unspecified) | -38.38% |
| `O=C(O)C(F)(F)F.O=C(c1ccc[nH]1)N1CCCn2c(CNC3CCC3)nnc2C1` | -57.9% |
| `O=C(O)C(F)(F)F.[H][C@@]12COC[C@]1(COCC1CCCC1)CN(c1ncccn1)C2` | -4.912% |
| `CN(C)c1ncc(CN2CCCC(Nc3ccc4c(c3)OCCO4)C2)s1` (stereo unspecified) | 1.238% |
| `CC(C)c1nc(C(=O)N2C[C@H](C(C)C)[C@@H](N)C2)cs1` | -35.47% |
| `CCc1ncc(CN2CCCC3(CCC(=O)N(CCC(C)C)C3)C2)cn1` (stereo unspecified) | -48.89% |
| `CNC(=O)c1ccc(NC(=O)NC(C)c2cc(C)oc2C)c(C)c1` (stereo unspecified) | -14.47% |
| `CC(C)c1nc(CNC2CCCN(c3cccnn3)C2)no1` (stereo unspecified) | -27.8% |
| `Cc1c(C(=O)N2CC(=O)N(C)C2)nnn1-c1cccc2cccnc12` | -26.06% |
| `[H][C@@]12CCN(C[C@@H]1CN(C)c1ccccc1)[C@@H](CNC(=O)COC)C2` | -0.9143% |
| `CSCCc1nc(C(C)C)nn1-c1ccncc1C` | -33.53% |
| `CCN(Cc1ccc(C)o1)C(=O)C(C)n1ccnc1C(C)C` (stereo unspecified) | -16.64% |
| `COCCNc1nc(-c2ccc(S(=O)(=O)N3CCCCCC3)cc2)cs1` | 10.33% |
| `CC(=O)N1CCC[C@@H](NCc2cccc(F)c2)[C@@H]1c1ccc(C)s1.Cl` | -27.78% |
| `CC(C)N1CCOC(CC(=O)N2CCCN(c3ccc(F)cc3)CC2)C1` (stereo unspecified) | 9.384% |
| `CC(C)(C)c1nc(NS(=O)(=O)c2cccc(F)c2)no1` | -17.53% |
| `Cc1cc(=O)[nH]cc1C(=O)N1CCN(C)c2ccccc2C1` | -12.99% |
| `CC(C)Oc1cc(N2C[C@@H](C)O[C@@H](C)C2)nc(N)n1` | -11.25% |
| `CCc1nc(N2CCC3(CC2)OCCCC3O)ncc1C` (stereo unspecified) | -25.1% |
| `O=C(c1ccccc1)N1CCN(CC(O)c2ccc(F)cc2)CC1` (stereo unspecified) | -14.32% |
| `CCCN(C(=O)CNC1CCc2ncnn2C1)C1=CCCCC1` (stereo unspecified) | -16.55% |
| `O=C(CO)N1CCN(S(=O)(=O)CCCF)CC1` | -27.71% |
| `CNC(=O)c1ccc2c(c1)C1(CCN(CCOC)CC1)C(=O)N2.O=C(O)C(F)(F)F` | -25.26% |
| `Cc1ccc(CNC(=O)Cn2c(=O)c3cccnc3n2C)cc1F` | -28.59% |
| `CN1CCN(CC2CCN(C(=O)CCC3CCCCC3)CC2)CC1` | -21.48% |
| `CC1CCCCN1C(=O)CCc1nnc(-c2ccccc2)o1` (stereo unspecified) | 3.389% |
| `O=C(Cn1ccnc1)N1CCCC(OCc2cccnc2)C1` (stereo unspecified) | -76.95% |
| `COc1cc(CNC(=O)Nc2nnc(C3CC3)s2)ccc1O` | 22.85% |
| `Cc1nn(C)c(C)c1OCC(=O)NCC(O)c1ccsc1` (stereo unspecified) | -30.28% |
| `Cc1cc(NC(=O)c2nc(N3CCCC3)ncc2Cl)nc(C(C)C)n1` | -27.64% |
| `[H][C@]12CC[C@]([H])(CN(Cc3cn(C)nc3C)C1)N(Cc1c(C)noc1C)C2=O` | -22.42% |
| `CSCc1nc(CCNC(=O)C2CCCN(C(C)=O)C2)cs1` (stereo unspecified) | -31.71% |
| `Cc1nc(CNCc2ccc(OC34CCCN(CC3)C4)cc2)n[nH]1` (stereo unspecified) | -22.33% |
| `O=C(O)C(F)(F)F.O=C1Nc2ccccc2C12CCN(Cc1cccs1)CC2` | 1.631% |
| `Cn1cc(NC(=O)c2ccccn2)cc(Br)c1=O` | 7.886% |
| `Cn1ccnc1CN1CCC2(CC1)CC(Oc1cccnc1)C2.O=C(O)C(F)(F)F.O=C(O)C(F)(F)F` | 25.99% |
| `CCc1ccc(NS(=O)(=O)CC2=NC(=O)n3cccc3C2=O)cc1` | -14.34% |
| `Cc1noc(C)c1CN1CCCC2(CCN(C(=O)N3CCOCC3)C2)C1` (stereo unspecified) | -44.34% |
| `COc1ccc(Cl)cc1-n1c(COC(C)C)n[nH]c1=O` | -14.98% |

4 of the entries, repeated:

Result for CCN(Cc1ccc(C)o1)C(=O)C(C)n1ccnc1C(C)C (stereo unspecified) was -16.64%.
Result for Cc1noc(C)c1CN1CCCC2(CCN(C(=O)N3CCOCC3)C2)C1 (stereo unspecified) was -44.34%.
Result for CN(C)C(=O)CN1CCCC1c1cccc(Cc2ccccc2F)n1 (stereo unspecified) was 100.6%.
Result for CC(C)c1nc(CNC2CCCN(c3cccnn3)C2)no1 (stereo unspecified) was -27.8%.